The data set in a line: ATPLite cytotoxicity assay in LMH cells. The conditions noted are these: chicken, 18–24 h, presence of 250 μM DFO. For orientation: ATP-based viability assays read luminescence as a measure of living cells.

A word on the CC50: it is the concentration giving 50% cytotoxicity.

As to `Cc1cc(NS(=O)(=O)c2ccc(N)cc2)no1` [sulfamethoxazole], the CC50 worked out at 528 µM.

(Values after publication PMC9022196 (Pharmacology Research & Perspectives, 2022).)
